No constants are given. Whether binding was seen depends on the method and setting. Some entries that bind do so weakly or less than the wild type. Where a sequence is shown, tags or fusion partners need not be part of it. Each block holds one binder with its values, some of them ahead of it.
How the values were obtained:
Assay in all cases: native gel or EMSA
[1] = molecular target: WT Roq1-Flag
[2] = molecular target: Roq1_(A455N)-Flag
[3] = molecular target: Roq1_(A455Q)-Flag
[4] = molecular target: NbNRG1 (WT NRG1, C-terminal YFP-HA) (N. benthamiana) (UniProt Q4TVR0)

binding [1]: binds
B1: WT Roq1-Flag (receptor, UniProt A0A290U7C4 1-1306)
chain: MLTSSSHHGRSYDVFLSFRGEDTRKTFVGHLFNALIEKGIHTFMDDKELKRGKSISSELMKAIGESRFAVVVFSKNYASSTWCLEELVKILEIHEKFELIVVPVFYDVDPSTVRKQNGEYAVCFTKFEANLVDDRDKVLRWREALTKVANISGHDLRNTYNGDESKCIQQILKDIFDKFCFSISITNRDLVGIESQIKKLSSLLRMDLKGVRLVGIWGMGGVGKTTAARALFNRYYQNFESACFLEDVKEYLQHHTLLYLQKTLLSKLLKVEFVDCTDTEEMCVILKRRLCSKKVLVVLDDVNHNDQLDKLVGAEDWFGSGSRIVITTRDMKLLKNHDVHETYEIKVLEKDEAIELFNLHAFKRSSPEKEFKELLNLVVDYTGGLPLALKVLGSLLYKEDLDVWISTIDRLKDNPEGEIMATLKISFDGLRDYEKSIFLDIACFFRGYNQRDMTALFHASGFHPVLGVKTLVEKSLIFILEDKIQMHDLMQEMGRQIAVQESPMRRIYRPEDVKDACIGDMRKEAIEGLLLTEPEQFEEGELEYMYSAEALKKTRRLRILVKEYYNRGFDEPVAYLPNSLLWLEWRNYSSNSFPSNFEPSKLVYLTMKGSSIIELWNGAKRLAFLTTLDLSYCHKLIQTPDFRMITNLERLILSSCDALVEVHPSVGFLKNLILLNMDHCISLERLPAIIQSECLEVLDLNYCFNLKMFPEVERNMTHLKKLDLTSTGIRELPASIEHLSSLENLQMHSCNQLVSLPSSIWRFRNLKISECEKLGSLPEIHGNSNCTRELILKLVSIKELPTSIGNLTSLNFLEICNCKTISSLSSSIWGLTSLTTLKLLDCRKLKNLPGIPNAINHLSGHGLQLLLTLEQPTIYERLDLLRIIDMSWCSCISSLPHNIWMLKFLRILCISYCSRLEYLPENLGHLEHLEELLADGTGILRLPSSVARLNKLEVLSFRKKFAIGPKVQYSSSMLNLPDDVFGSLGSLGSVVKLNLSGNGFCNLPETMNQLFCLEYLDITFCQRLEALPELPPSIKELYVDEHLALRIMEDLVIKCKELNLIAVTKIEYQNFYRWLDSIWSDVSELLENSQKQQLDDMLQLIPFSYLSTAKREEVLKIVIHGTRIPEWFRWQDRSATTMSVNLPEYWYTENFLGFAICCSCCFYHSARSYDVEFEGSMHHYNYDSSYWKEYEEPSYDFYERDSIEITAKLTPRHKGMRTEELKKVCSFSMNVLRRATAVPNMCFAFFPFNSLCHISNLQANNPNDYGIFETCLSPGDIRHRGKQWGFNLVYKDETGGSVTHEMLINR

binding [2]: binds
B2: Roq1_(A455N)-Flag (receptor, UniProt A0A290U7C4 1-1306)
chain: MLTSSSHHGRSYDVFLSFRGEDTRKTFVGHLFNALIEKGIHTFMDDKELKRGKSISSELMKAIGESRFAVVVFSKNYASSTWCLEELVKILEIHEKFELIVVPVFYDVDPSTVRKQNGEYAVCFTKFEANLVDDRDKVLRWREALTKVANISGHDLRNTYNGDESKCIQQILKDIFDKFCFSISITNRDLVGIESQIKKLSSLLRMDLKGVRLVGIWGMGGVGKTTAARALFNRYYQNFESACFLEDVKEYLQHHTLLYLQKTLLSKLLKVEFVDCTDTEEMCVILKRRLCSKKVLVVLDDVNHNDQLDKLVGAEDWFGSGSRIVITTRDMKLLKNHDVHETYEIKVLEKDEAIELFNLHAFKRSSPEKEFKELLNLVVDYTGGLPLALKVLGSLLYKEDLDVWISTIDRLKDNPEGEIMATLKISFDGLRDYEKSIFLDIACFFRGYNQRDMTNLFHASGFHPVLGVKTLVEKSLIFILEDKIQMHDLMQEMGRQIAVQESPMRRIYRPEDVKDACIGDMRKEAIEGLLLTEPEQFEEGELEYMYSAEALKKTRRLRILVKEYYNRGFDEPVAYLPNSLLWLEWRNYSSNSFPSNFEPSKLVYLTMKGSSIIELWNGAKRLAFLTTLDLSYCHKLIQTPDFRMITNLERLILSSCDALVEVHPSVGFLKNLILLNMDHCISLERLPAIIQSECLEVLDLNYCFNLKMFPEVERNMTHLKKLDLTSTGIRELPASIEHLSSLENLQMHSCNQLVSLPSSIWRFRNLKISECEKLGSLPEIHGNSNCTRELILKLVSIKELPTSIGNLTSLNFLEICNCKTISSLSSSIWGLTSLTTLKLLDCRKLKNLPGIPNAINHLSGHGLQLLLTLEQPTIYERLDLLRIIDMSWCSCISSLPHNIWMLKFLRILCISYCSRLEYLPENLGHLEHLEELLADGTGILRLPSSVARLNKLEVLSFRKKFAIGPKVQYSSSMLNLPDDVFGSLGSLGSVVKLNLSGNGFCNLPETMNQLFCLEYLDITFCQRLEALPELPPSIKELYVDEHLALRIMEDLVIKCKELNLIAVTKIEYQNFYRWLDSIWSDVSELLENSQKQQLDDMLQLIPFSYLSTAKREEVLKIVIHGTRIPEWFRWQDRSATTMSVNLPEYWYTENFLGFAICCSCCFYHSARSYDVEFEGSMHHYNYDSSYWKEYEEPSYDFYERDSIEITAKLTPRHKGMRTEELKKVCSFSMNVLRRATAVPNMCFAFFPFNSLCHISNLQANNPNDYGIFETCLSPGDIRHRGKQWGFNLVYKDETGGSVTHEMLINR

binding [3]: binds
B3: Roq1_(A455Q)-Flag (receptor, UniProt A0A290U7C4 1-1306)
chain: MLTSSSHHGRSYDVFLSFRGEDTRKTFVGHLFNALIEKGIHTFMDDKELKRGKSISSELMKAIGESRFAVVVFSKNYASSTWCLEELVKILEIHEKFELIVVPVFYDVDPSTVRKQNGEYAVCFTKFEANLVDDRDKVLRWREALTKVANISGHDLRNTYNGDESKCIQQILKDIFDKFCFSISITNRDLVGIESQIKKLSSLLRMDLKGVRLVGIWGMGGVGKTTAARALFNRYYQNFESACFLEDVKEYLQHHTLLYLQKTLLSKLLKVEFVDCTDTEEMCVILKRRLCSKKVLVVLDDVNHNDQLDKLVGAEDWFGSGSRIVITTRDMKLLKNHDVHETYEIKVLEKDEAIELFNLHAFKRSSPEKEFKELLNLVVDYTGGLPLALKVLGSLLYKEDLDVWISTIDRLKDNPEGEIMATLKISFDGLRDYEKSIFLDIACFFRGYNQRDMTQLFHASGFHPVLGVKTLVEKSLIFILEDKIQMHDLMQEMGRQIAVQESPMRRIYRPEDVKDACIGDMRKEAIEGLLLTEPEQFEEGELEYMYSAEALKKTRRLRILVKEYYNRGFDEPVAYLPNSLLWLEWRNYSSNSFPSNFEPSKLVYLTMKGSSIIELWNGAKRLAFLTTLDLSYCHKLIQTPDFRMITNLERLILSSCDALVEVHPSVGFLKNLILLNMDHCISLERLPAIIQSECLEVLDLNYCFNLKMFPEVERNMTHLKKLDLTSTGIRELPASIEHLSSLENLQMHSCNQLVSLPSSIWRFRNLKISECEKLGSLPEIHGNSNCTRELILKLVSIKELPTSIGNLTSLNFLEICNCKTISSLSSSIWGLTSLTTLKLLDCRKLKNLPGIPNAINHLSGHGLQLLLTLEQPTIYERLDLLRIIDMSWCSCISSLPHNIWMLKFLRILCISYCSRLEYLPENLGHLEHLEELLADGTGILRLPSSVARLNKLEVLSFRKKFAIGPKVQYSSSMLNLPDDVFGSLGSLGSVVKLNLSGNGFCNLPETMNQLFCLEYLDITFCQRLEALPELPPSIKELYVDEHLALRIMEDLVIKCKELNLIAVTKIEYQNFYRWLDSIWSDVSELLENSQKQQLDDMLQLIPFSYLSTAKREEVLKIVIHGTRIPEWFRWQDRSATTMSVNLPEYWYTENFLGFAICCSCCFYHSARSYDVEFEGSMHHYNYDSSYWKEYEEPSYDFYERDSIEITAKLTPRHKGMRTEELKKVCSFSMNVLRRATAVPNMCFAFFPFNSLCHISNLQANNPNDYGIFETCLSPGDIRHRGKQWGFNLVYKDETGGSVTHEMLINR

binding [4]: binds
B4: NbNRG1 (WT NRG1, C-terminal YFP-HA) (receptor, UniProt Q4TVR0 1-850)
chain: MAATLLGGAALGPVFDILLKAVLDVGIKIATFRSKFQSLIKTLNDIKPVFDDIERLNKALDGRDYEIEMFKKQLFAGEELVRKCSKTKCYDALKKWNYSRKLTKLENSLVRFCQVHGFIQVCRDSKIILVNVIEHGKKLDQITSMLRGISLRNGSSIGFTNSNGSSGWMNGNSFGSTNGSGFSGWSDVPQFSDSVVGFDLPLQELKVKLLEEKEKVVVLSAPAGCGKTTLAAMLCQEDDIKDKYRDIFFVTVSKKANIKRIVGEIFEMKGYKGPDFASEHAAVCQLNNLLRRSTSQPVLLVLDDVWSESDFVIESFIFQIPGFKILVTSRSVFPKFDTYKLNLLSEKDAKALFYSSAFKDSIPYVQLDLVHKAVRSCCGFPLALKVVGRSLCGQPELIWFNRVMLQSKRQILFPTENDLLRTLRASIDALDEIDLYSSEATTLRDCYLDLGSFPEDHRIHAAAILDMWVERYNLDEDGMKAMAIFFQLSSQNLVNLALARKDAPAVLGLHNLHYIQQHDLLRELVIHQCDEKTVEERKRLYINIKGNDFPKWWSQQRLQPLQAEVLSIFTDEHFESVWYDVRFPKVEVLVLNFETKTYNFPPFVEQMSQLKTLIVANNYFFPTKLNNFQLCSLLNLKRISLERISVTSIFTANLQLPNLRKISFIMCEIGEAFENYAANMSYMWPKLVEMNIEYCSDLVEVPAETCDLVGLKKLSICYCHELVALPEELGKLSNLEVLRLHSCTNVSKLPESVVKLNRLGFLDVYDCVELDFLPREMDQLCSLRTICMGSRLGFTELPDSVLRLVKLEDVVCDEETASLWEYYKEHLRNLRITVIKEDINLNLLHKSLFI
